# Assay results reported in the supplement of paper PMC8728848.
# The other results are listed elsewhere or left out.
# B1: SAOUHSC 02783 (Staphylococcus aureus), Q5HD69 (protein)
# chain: MIHSKKLTLGICLVLLIILIVGYVIMTKTNGRNAQIKDTFNQTLKLYPTKNLDDFYDKEGFRDQEFKKGDKGTWIVNSEMVIEPKGKDMETRGMVLYINRNTRTTKGYYFISEMTDDSNGRPKDDEKRYPVKMEHNKIIPTKPLPNDKLKKEIENFKFFVQYGNFKDINDYKDGDISYNPNVPSYSAKYQLNNDDYNVQQLRKRYDIPTKQAPKLLLKGDGDLKGSSVGSRSLEFTFVENKEENIYFTDSVQYTPSEDTRYESN
# Columns and labels:
# Test in all cases: glycan array binding signal (z-score within array); higher = stronger binding
# Details in all cases: glycan notation: IUPAC condensed, linker removed
# [1] = biological target: Man(a1-3)[Man(a1-6)]Man(a1-6)[Man(a1-3)]Man
# How it was run: (§1)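 Glycan array data came from 3228 arrays in the Consortium for Functional Glycomics database, and only arrays with an available protein sequence were kept. Glycan names were put into IUPAC-condensed notation, and columns mapping to the same glycan were averaged. The binding signal is a within-array Z-score, averaged across arrays of one protein sequence run at different concentrations or buffers and across linkers. A negative Z-score can be read as non-binding.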
# [2] = biological target: Man(a1-3)[Man(a1-6)]Man(a1-6)[Man(a1-3)]Man(b1-4)GlcNAc(b1-4)GlcNAc
# How it was run: as §1
# [3] = biological target: Man(a1-3)[Man(a1-6)]Man(b1-4)GlcNAc(b1-4)GlcNAc
# How it was run: as §1
# [4] = biological target: Man(a1-3)[Man(a1-6)]Man(b1-4)GlcNAc(b1-4)[Fuc(a1-6)]GlcNAc
# How it was run: as §1
# Man(a1-6)Man = biological target: Man(a1-6)Man
# How it was run: as §1
# Man(b1-4)GlcNAc = biological target: Man(b1-4)GlcNAc
# How it was run: as §1
# MurNAc(b1-4)GlcNAc = biological target: MurNAc(b1-4)GlcNAc
# How it was run: as §1
# Neu5Ac(a2-3)Gal = biological target: Neu5Ac(a2-3)Gal
# How it was run: as §1
# [5] = biological target: Neu5Ac(a2-3)Gal(b1-3)GalNAc
# How it was run: as §1
# [6] = biological target: Neu5Ac(a2-3)Gal(b1-3)GalNAc(b1-3)Gal(a1-4)Gal(b1-4)Glc
# How it was run: as §1
# [7] = biological target: Neu5Ac(a2-3)Gal(b1-3)GalNAc(b1-4)Gal(b1-4)Glc
# How it was run: as §1
# [8] = biological target: Neu5Ac(a2-3)Gal(b1-3)GalNAc(b1-4)[Neu5Ac(a2-3)]Gal(b1-4)Glc
# How it was run: as §1
# [9] = biological target: Neu5Ac(a2-3)Gal(b1-3)GalNAc(b1-4)[Neu5Ac(a2-8)Neu5Ac(a2-3)]Gal(b1-4)Glc
# How it was run: as §1
# [10] = biological target: Neu5Ac(a2-3)Gal(b1-3)GalNAc6S
# How it was run: as §1
# [11] = biological target: Neu5Ac(a2-3)Gal(b1-3)GlcNAc
# How it was run: as §1
# [12] = biological target: Neu5Ac(a2-3)Gal(b1-3)GlcNAc(b1-2)Man
# How it was run: as §1
# [13] = biological target: Neu5Ac(a2-3)Gal(b1-3)GlcNAc(b1-2)Man(a1-3)[GlcNAc(b1-4)][Neu5Ac(a2-3)Gal(b1-3)GlcNAc(b1-2)Man(a1-6)]Man(b1-4)GlcNAc(b1-4)GlcNAc
# How it was run: as §1
# [14] = biological target: Neu5Ac(a2-3)Gal(b1-3)GlcNAc(b1-2)Man(a1-3)[Neu5Ac(a2-3)Gal(b1-3)GlcNAc(b1-2)Man(a1-6)]Man(b1-4)GlcNAc(b1-4)GlcNAc
# How it was run: as §1
# [15] = biological target: Neu5Ac(a2-3)Gal(b1-3)GlcNAc(b1-2)[Neu5Ac(a2-3)Gal(b1-3)GlcNAc(b1-4)]Man(a1-6)[Neu5Ac(a2-3)Gal(b1-3)GlcNAc(b1-2)Man(a1-3)]Man(b1-4)GlcNAc(b1-4)GlcNAc
# How it was run: as §1
# [16] = biological target: Neu5Ac(a2-3)Gal(b1-3)GlcNAc(b1-3)Gal(b1-3)GlcNAc
# How it was run: as §1
# [17] = biological target: Neu5Ac(a2-3)Gal(b1-3)GlcNAc(b1-3)Gal(b1-4)GlcNAc
# How it was run: as §1
# [18] = biological target: Neu5Ac(a2-3)Gal(b1-3)GlcNAc(b1-3)GalNAc
# How it was run: as §1
# [19] = biological target: Neu5Ac(a2-3)Gal(b1-3)GlcNAc(b1-6)GalNAc
# How it was run: as §1
# [20] = biological target: Neu5Ac(a2-3)Gal(b1-3)GlcNAc6S
# How it was run: as §1
# [21] = biological target: Neu5Ac(a2-3)Gal(b1-3)[Fuc(a1-4)]GlcNAc
# How it was run: as §1
# [22] = biological target: Neu5Ac(a2-3)Gal(b1-3)[Fuc(a1-4)]GlcNAc(b1-3)Gal(b1-3)[Fuc(a1-4)]GlcNAc
# How it was run: as §1
# [23] = biological target: Neu5Ac(a2-3)Gal(b1-3)[Fuc(a1-4)]GlcNAc(b1-3)Gal(b1-4)[Fuc(a1-3)]GlcNAc
# How it was run: as §1
# [24] = biological target: Neu5Ac(a2-3)Gal(b1-3)[GlcNAc(b1-6)]GalNAc
# How it was run: as §1
# [25] = biological target: Neu5Ac(a2-3)Gal(b1-3)[Neu5Ac(a2-6)]GalNAc
# How it was run: as §1
# [26] = biological target: Neu5Ac(a2-3)Gal(b1-3)[Neu5Ac(a2-6)]GlcNAc(b1-3)[Fuc(a1-3)[Gal(b1-4)]GlcNAc(b1-6)]Gal(b1-4)Glc
# How it was run: as §1
# [27] = biological target: Neu5Ac(a2-3)Gal(b1-3)]Neu5Ac(a2-3)Gal(b1-4)]GlcNAc
# How it was run: as §1
# Neu5Ac(a2-3)Gal(b1-4)Glc = biological target: Neu5Ac(a2-3)Gal(b1-4)Glc
# How it was run: as §1
# [28] = biological target: Neu5Ac(a2-3)Gal(b1-4)GlcNAc
# How it was run: as §1
# [29] = biological target: Neu5Ac(a2-3)Gal(b1-4)GlcNAc(b1-2)Man
# How it was run: as §1
# [30] = biological target: Neu5Ac(a2-3)Gal(b1-4)GlcNAc(b1-2)Man(a1-3)[GlcNAc(b1-4)][Neu5Ac(a2-3)Gal(b1-4)GlcNAc(b1-2)Man(a1-6)]Man(b1-4)GlcNAc(b1-4)GlcNAc
# How it was run: as §1
# [31] = biological target: Neu5Ac(a2-3)Gal(b1-4)GlcNAc(b1-2)Man(a1-3)[Neu5Ac(a2-3)Gal(b1-4)GlcNAc(b1-2)Man(a1-6)]Man(b1-4)GlcNAc(b1-4)GlcNAc
# How it was run: as §1
# [32] = biological target: Neu5Ac(a2-3)Gal(b1-4)GlcNAc(b1-2)Man(a1-3)[Neu5Ac(a2-3)Gal(b1-4)GlcNAc(b1-2)Man(a1-6)]Man(b1-4)GlcNAc(b1-4)[Fuc(a1-6)]GlcNAc
# How it was run: as §1
# [33] = biological target: Neu5Ac(a2-3)Gal(b1-4)GlcNAc(b1-2)Man(a1-3)[Neu5Ac(a2-6)Gal(b1-4)GlcNAc(b1-2)Man(a1-6)]Man(b1-4)GlcNAc(b1-4)GlcNAc
# How it was run: as §1
binder,measurement,setting,value
B1,glycan array binding signal (z-score),[1],0.139
same,glycan array binding signal (z-score),[2],0.016
same,glycan array binding signal (z-score),[3],-0.854
same,glycan array binding signal (z-score),[4],-0.045
same,glycan array binding signal (z-score),Man(a1-6)Man,-1.7
same,glycan array binding signal (z-score),Man(b1-4)GlcNAc,-0.652
same,glycan array binding signal (z-score),MurNAc(b1-4)GlcNAc,-0.233
same,glycan array binding signal (z-score),Neu5Ac(a2-3)Gal,-0.171
same,glycan array binding signal (z-score),[5],-0.054
same,glycan array binding signal (z-score),[6],-0.302
same,glycan array binding signal (z-score),[7],-0.302
same,glycan array binding signal (z-score),[8],0.032
same,glycan array binding signal (z-score),[9],-0.869
same,glycan array binding signal (z-score),[10],-0.29
same,glycan array binding signal (z-score),[11],-0.344
same,glycan array binding signal (z-score),[12],-0.483
same,glycan array binding signal (z-score),[13],-0.381
same,glycan array binding signal (z-score),[14],6.23
same,glycan array binding signal (z-score),[15],-0.866
same,glycan array binding signal (z-score),[16],-0.397
same,glycan array binding signal (z-score),[17],1.36
same,glycan array binding signal (z-score),[18],0.712
same,glycan array binding signal (z-score),[19],-0.175
same,glycan array binding signal (z-score),[20],-0.737
same,glycan array binding signal (z-score),[21],-0.361
same,glycan array binding signal (z-score),[22],-0.391
same,glycan array binding signal (z-score),[23],0.308
same,glycan array binding signal (z-score),[24],0.251
same,glycan array binding signal (z-score),[25],0.042
same,glycan array binding signal (z-score),[26],0.955
same,glycan array binding signal (z-score),[27],1.61
same,glycan array binding signal (z-score),Neu5Ac(a2-3)Gal(b1-4)Glc,-0.093
same,glycan array binding signal (z-score),[28],0.134
same,glycan array binding signal (z-score),[29],0.804
same,glycan array binding signal (z-score),[30],1.05
same,glycan array binding signal (z-score),[31],0.306
same,glycan array binding signal (z-score),[32],0.516
same,glycan array binding signal (z-score),[33],0.096

# Reformatted with bars between the fields: entries from further up
binder | measurement | setting | value
B1 | glycan array binding signal (z-score) | [5] | -0.054
same | glycan array binding signal (z-score) | [6] | -0.302
same | glycan array binding signal (z-score) | [7] | -0.302
